Experimental data reported in patent US20060280894A1, “Metal complexes as light-absorbing compounds in the information layer of optical data carriers” (priority 2003, published 2006).

Assay: Dynamic writing test of a spin-coated DVD-R type disk
Details: 11 T pits, V=3.5 m/s, Pwrite=10 mW, diode laser λ=656 nm, NA=0.6

Compound	signal/noise ratio C/N
CCN(CC)c1ccc(N=Nc2nc(-c3ccccc3)ns2)c([N-]S(=O)(=O)N(C)C)c1.CCN(CC)c1ccc(N=Nc2nc(-c3ccccc3)ns2)c([N-]S(=O)(=O)N(C)C)c1.[Ni+2] [Example 11]	48 dB
CCN(CC)c1ccc(N=Nc2nc(C#N)c(C#N)n2C)c([N-]S(=O)(=O)N(C)C)c1.CCN(CC)c1ccc(N=Nc2nc(C#N)c(C#N)n2C)c([N-]S(=O)(=O)N(C)C)c1.[Ni+2] [Example 15]	53 dB
